Results are given in words; binding and its absence hold for the method and conditions named. In cells and extracts the contact can be indirect. Some results given as binding are weak or reduced against the parent protein; the word gives no strength.
Target: HA-tagged GRP75 (GRP75-HA) (not stated (human or porcine cDNA cloned)) (UniProt P38646)
Assay: co-IP; HEK-293T co-transfected with GRP75-HA and HSC70-MYC for 48 h, NP-40 lysis, IP with HA-specific antibody, blot with MYC antibody

Amino acid sequences for entries named in this document (tags omitted). Residues count along the entry.
UniProt P38646, residues 47-679: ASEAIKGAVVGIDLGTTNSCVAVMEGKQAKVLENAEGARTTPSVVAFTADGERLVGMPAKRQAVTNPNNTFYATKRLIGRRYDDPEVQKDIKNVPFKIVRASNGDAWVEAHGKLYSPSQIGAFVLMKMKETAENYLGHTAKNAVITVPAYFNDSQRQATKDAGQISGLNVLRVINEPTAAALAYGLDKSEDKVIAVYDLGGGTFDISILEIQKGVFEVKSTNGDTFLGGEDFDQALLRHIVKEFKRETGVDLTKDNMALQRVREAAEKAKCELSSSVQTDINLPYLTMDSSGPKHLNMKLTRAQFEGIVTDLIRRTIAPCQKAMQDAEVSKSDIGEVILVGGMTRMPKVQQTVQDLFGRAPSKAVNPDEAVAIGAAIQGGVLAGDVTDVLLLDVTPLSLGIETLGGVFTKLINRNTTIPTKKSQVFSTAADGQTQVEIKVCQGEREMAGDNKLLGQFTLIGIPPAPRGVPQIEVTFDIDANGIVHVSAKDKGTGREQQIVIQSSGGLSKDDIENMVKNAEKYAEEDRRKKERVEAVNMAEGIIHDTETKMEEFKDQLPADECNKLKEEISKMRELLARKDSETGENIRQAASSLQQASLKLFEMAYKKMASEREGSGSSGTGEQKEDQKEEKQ
UniProt P11142: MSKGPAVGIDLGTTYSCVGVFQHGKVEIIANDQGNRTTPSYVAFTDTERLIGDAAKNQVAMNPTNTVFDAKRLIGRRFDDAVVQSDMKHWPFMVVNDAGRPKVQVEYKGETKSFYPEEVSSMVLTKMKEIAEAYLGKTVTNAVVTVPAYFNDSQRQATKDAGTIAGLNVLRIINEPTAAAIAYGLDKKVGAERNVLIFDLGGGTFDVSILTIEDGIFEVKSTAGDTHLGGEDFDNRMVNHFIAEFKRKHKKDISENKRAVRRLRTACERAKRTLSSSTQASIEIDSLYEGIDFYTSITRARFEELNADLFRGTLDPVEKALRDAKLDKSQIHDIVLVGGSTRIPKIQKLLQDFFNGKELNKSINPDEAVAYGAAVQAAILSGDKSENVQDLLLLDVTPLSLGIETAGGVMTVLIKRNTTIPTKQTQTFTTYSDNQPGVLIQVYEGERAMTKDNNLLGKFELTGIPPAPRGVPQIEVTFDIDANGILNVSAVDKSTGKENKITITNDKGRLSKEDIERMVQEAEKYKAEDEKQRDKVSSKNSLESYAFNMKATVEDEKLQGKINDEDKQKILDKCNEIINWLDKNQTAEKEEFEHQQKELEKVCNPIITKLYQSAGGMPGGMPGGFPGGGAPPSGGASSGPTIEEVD

binding: binds
Substance: MYC-tagged HSC70 (HSC70-MYC) in HEK-293T cells (from UniProt P11142 1-646)
